Assay results: PMC7819943, “Rice protein-binding microarrays: a tool to detect cis-acting elements near promoter regions in rice”
Some of the results follow.

Sequences of proteins named here, by UniProt entry; tags and fusion partners are left off.
UniProt Q0JBA9, entry or part of it: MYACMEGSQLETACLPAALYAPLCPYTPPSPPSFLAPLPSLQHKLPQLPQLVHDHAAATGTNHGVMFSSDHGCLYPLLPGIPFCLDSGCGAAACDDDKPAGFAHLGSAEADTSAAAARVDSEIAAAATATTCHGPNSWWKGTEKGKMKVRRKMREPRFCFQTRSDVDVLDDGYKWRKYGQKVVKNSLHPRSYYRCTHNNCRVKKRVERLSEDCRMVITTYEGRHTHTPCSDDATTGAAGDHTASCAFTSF

biological target: OsWRKY34 (Oryza sativa, UniProt Q0JBA9 1-250); test: protein-binding microarray (RPBM); PBS, 2% BSA, 51.3 ng/ul salmon testes DNA, 50 uM zinc acetate, 200 nM TF, 25 C, 1 h; high values mean tight binding; details: protein: recombinant; tags: N-terminal polyhistidine and DsRed monomer fusion (pET32a); label: CyDye5-dUTP incorporated in the synthesized complementary strand; 3' TTTTT single-stranded linker to array surface; dsDNA, one strand shown
Outline: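 Binding signal is defined as the fluorescence intensity of each feature in arbitrary units, read on an Axon 4000B scanner. Transcription factors with N-terminal polyhistidine and DsRed fusions came from E. coli BL21-CodonPlus and were purified on Ni–NTA. They were incubated at 200 nM for 1 h at 25 °C on a custom Agilent array that had been made double-stranded with Cy5-dUTP, with 50 µM zinc acetate present, and the array was washed.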

Row | Sequence | binding signal
1 | TTTAATCAAATGTACTAGTACTGTTTTCTGGCGGAGCTACCGGAGTCACCTAGTGCAG | 8040 fluorescence intensity (a.u.)
2 | ATATATGCCACCCCATTCCTCGCCCACACGCGCAGCACACCGGAGTCACCTAGTGCAG | 8870 fluorescence intensity (a.u.)
3 | ATGCATTAGCTAATTTTGACTCATTTCTTAATTCTTATACCGGAGTCACCTAGTGCAG | 8110 fluorescence intensity (a.u.)
4 | GCCACATGACCGCATTCAAAGTTTCGGCTCCTCTGTTTCCCGGAGTCACCTAGTGCAG | 12300 fluorescence intensity (a.u.)
5 | TCACTCGTCCTCTTATTCGCTACTAATTTCCTTCGCACATCGGAGTCACCTAGTGCAG | 11300 fluorescence intensity (a.u.)
6 | TTATTTTGTGTCGATATGTAGTTCCATAGTTAGTGAAAGTCGGAGTCACCTAGTGCAG | 8320 fluorescence intensity (a.u.)
7 | TGTTACTTTTGTGTGATCTGTGTGGATGGGTCTTTTTTTCCGGAGTCACCTAGTGCAG | 13500 fluorescence intensity (a.u.)
8 | GTACTTCATGTAGCTGCGCCAGGTGTGCCAGATGGTTTCTCGGAGTCACCTAGTGCAG | 10200 fluorescence intensity (a.u.)
9 | TGCGTGATGATATATTGACTGCTCCATCTCTCGTCTCGCGCGGAGTCACCTAGTGCAG | 8630 fluorescence intensity (a.u.)
10 | TGTTTGTGTTTGGTATGGTTTGTTTCTCGATCGGTACATCCGGAGTCACCTAGTGCAG | 14700 fluorescence intensity (a.u.)
11 | GACGAGGGCACGGCCGTCACTTCCTACGCGTGGGGATCACCGGAGTCACCTAGTGCAG | 8250 fluorescence intensity (a.u.)
12 | CCAAAAACCTCTACTCTTCCGCGTCTTGGAAAATTCTTCTCGGAGTCACCTAGTGCAG | 9300 fluorescence intensity (a.u.)
13 | CCCGCTCGTCTAAAACCCTCGACCTCCTCGCCTCATCCACCGGAGTCACCTAGTGCAG | 10300 fluorescence intensity (a.u.)
14 | AGGTTATTTTTTCCTTACCTTTTTTTTTTCTGATACTACTCGGAGTCACCTAGTGCAG | 9920 fluorescence intensity (a.u.)
15 | TACTTTACCATTGTGGGTGCTCTAATTTCTACACTGTCCTCGGAGTCACCTAGTGCAG | 8600 fluorescence intensity (a.u.)
16 | CGCCTCCACGCCGCCCGTACACCGATCGCGATCTCTGTCGCGGAGTCACCTAGTGCAG | 9060 fluorescence intensity (a.u.)
17 | GGAATACATTTATATCGCTCTCTTTTATATTATAGGTCATCGGAGTCACCTAGTGCAG | 8850 fluorescence intensity (a.u.)
18 | CTCTGCTTCTCGTGTTCTTGCTGTCCGCCGATCGCCGGGTCGGAGTCACCTAGTGCAG | 8230 fluorescence intensity (a.u.)
19 | TAATAAAGATGGTTTCTGTCCGTTTCGTTTCCGTATCGTTCGGAGTCACCTAGTGCAG | 8390 fluorescence intensity (a.u.)
20 | CATCTTTTATGGGCCTTACCGGTAGATGGCCGTACGGCCCCGGAGTCACCTAGTGCAG | 10500 fluorescence intensity (a.u.)
21 | TCGCTTCACTGCTTCCCTACTACACACTCGCCGCCATTCCCGGAGTCACCTAGTGCAG | 8270 fluorescence intensity (a.u.)

Row | Sequence | binding signal
22 | TCCCTCGTCACCATCCTCCTCACCTCCTCCGCGGTGGCCGCGGAGTCACCTAGTGCAG | 9890 fluorescence intensity (a.u.)
23 | GGAGGGATATGAATTTTTCCTTTGATGCATTCCTTTGAAACGGAGTCACCTAGTGCAG | 8390 fluorescence intensity (a.u.)
24 | GGAGCAGCAAGTACACACTTCAATTCTTTTCTGCTTCGAACGGAGTCACCTAGTGCAG | 9290 fluorescence intensity (a.u.)
25 | CTTTGTGCTGGACCGACGACGTCGTTCGCTCTTTTATCCTCGGAGTCACCTAGTGCAG | 9040 fluorescence intensity (a.u.)
26 | TGGTAATTTAGTGTCCATTATGGTGTTTCTTAATTGCTTTCGGAGTCACCTAGTGCAG | 8560 fluorescence intensity (a.u.)
27 | GTGGTGCATCAGTATATTCTCCAATGTTAATGTTCTCTCTCGGAGTCACCTAGTGCAG | 8700 fluorescence intensity (a.u.)
28 | GTTGGTCGGTGGCCGCCCGTCGCTTCTCCTCTTCCGACGCCGGAGTCACCTAGTGCAG | 8080 fluorescence intensity (a.u.)
29 | ATATCGGTCATGACGTCGTGTGTGTCGCATTGTACATGATCGGAGTCACCTAGTGCAG | 9070 fluorescence intensity (a.u.)
30 | GGCCGAATCCTTTTCTCTCCCTTCGGCTCAATTGGCCCAGCGGAGTCACCTAGTGCAG | 9900 fluorescence intensity (a.u.)
31 | CGCGACCCCGTTCAGTCAACCGTCATTCCGTCTCTTGCTCCGGAGTCACCTAGTGCAG | 9280 fluorescence intensity (a.u.)
32 | GACTTACCTTCATTATTATCGAGTTGATATTTTCAATGTTCGGAGTCACCTAGTGCAG | 8310 fluorescence intensity (a.u.)
33 | CGCTCAATTTCTATCCCTCTGTCTTTACTTCTCTCTCCATCGGAGTCACCTAGTGCAG | 10500 fluorescence intensity (a.u.)
34 | CTTCCTATTCAATTTGGGCCAAACTCCCATTCATTTGGCCCGGAGTCACCTAGTGCAG | 10200 fluorescence intensity (a.u.)
35 | ATGATGTGTTTCAGTCTGTACCATATCGTTTTGACGTTTTCGGAGTCACCTAGTGCAG | 8520 fluorescence intensity (a.u.)
36 | GCCTATTCATTCTCTGGAGATCCATTAAATTTGAATGTCTCGGAGTCACCTAGTGCAG | 8550 fluorescence intensity (a.u.)
37 | ATCCAATCTTGCCGCTCTCTGGGCTCACAGTTTCTTAATTCGGAGTCACCTAGTGCAG | 9160 fluorescence intensity (a.u.)
38 | CTTTTTCCTGACTGCAGTCTCCCAGGATCGTAATCTTGTACGGAGTCACCTAGTGCAG | 8360 fluorescence intensity (a.u.)
39 | GCTCCATCATGCATATTCTATCTATATCCAAAGCTTAACACGGAGTCACCTAGTGCAG | 8530 fluorescence intensity (a.u.)
40 | CCCTTGACGCTTCATTTCCGTCTTCTCATTTAAACTTTATCGGAGTCACCTAGTGCAG | 8130 fluorescence intensity (a.u.)
41 | ACACCGTTGATTTTTTAGTATGTGTTTAACCGTTCGTCTTCGGAGTCACCTAGTGCAG | 8800 fluorescence intensity (a.u.)
42 | GCAATTAATTAATTCTCCATCGTTGCAAGTTAGCCAATTTCGGAGTCACCTAGTGCAG | 8350 fluorescence intensity (a.u.)

Fetched one by one from the list above (2):
Row | Sequence | binding signal
38 | CTTTTTCCTGACTGCAGTCTCCCAGGATCGTAATCTTGTACGGAGTCACCTAGTGCAG | 8360 fluorescence intensity (a.u.)
35 | ATGATGTGTTTCAGTCTGTACCATATCGTTTTGACGTTTTCGGAGTCACCTAGTGCAG | 8520 fluorescence intensity (a.u.)
